Values from PubChem BioAssay AID1259308 (NCATS, 2017).
Assay: 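Genes whose loss raises luciferase production in HEK293 cells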 (primary screen). Cell system: human HEK293 embryonic kidney cells stably expressing firefly luciferase (HEK-CMV-Luc2-Hygro). Reagents: single siRNA against human genes, 0.8 pmol siRNA per well. Time to read-out: 72 h. Measured: 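Reporter luminescence and viable-cell signal on separate replicate plates, given as percent of non-targeting control and median/MAD z-scores, plus per-cell luciferase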. Scale: total luciferase, z-score: higher = more reporter protein produced. Hit rule: 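An siRNA counts as active if its total luciferase robust z-score exceeds 3; genes with two or more such siRNAs out of three were retested with fresh siRNAs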. Meaning of the calls: active = raised luciferase; inactive = no rise.
The deposit covers about 59,000 reagents; this is a part drawn at random. About 1,510 of them (2.6%) were called active. 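Calls use total luciferase alone and ignore viability, so some active siRNAs may act by altering cell number.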 A number with no mark means an inactive call. Reagents against one gene are numbered here. Further read-outs or replicates are left out here.

Knock-down of TGM2 #1 resulted in: total luciferase, z-score 0.658. After knock-down of TGM2 #2 the results were total luciferase, z-score -0.424. With knock-down of TGM2 #3, the record shows total luciferase, z-score 3.49 (active). Silencing of NELL1 #1 gave: total luciferase, z-score 0.62. For NELL1 #2 the deposit lists total luciferase, z-score -1.02. Silencing of NELL1 #3 resulted in: total luciferase, z-score -2.42.

KLHL13 #1 scored total luciferase, z-score 1.4. Against KLHL13 #2 the deposit lists total luciferase, z-score -0.439. Against KLHL13 #3 the deposit lists total luciferase, z-score -0.759. With knock-down of CD84 #1, the record shows total luciferase, z-score 1.54. Depletion of CD84 #2 resulted in: total luciferase, z-score 0.373. After knock-down of CD84 #3 the results were total luciferase, z-score -0.478.

With knock-down of NWD1 #1, the screen gave total luciferase, z-score 0.146. NWD1 #2 showed total luciferase, z-score 0.342. NWD1 #3 gave total luciferase, z-score 0.405. Against SLC5A5 #1 the deposit lists total luciferase, z-score 0.785. SLC5A5 #2 showed total luciferase, z-score 0.537. For SLC5A5 #3, the values are total luciferase, z-score -1.15.

Silencing of UBE4A #1 gave: total luciferase, z-score -0.634. With knock-down of UBE4A #2 the results were total luciferase, z-score 1.16. For UBE4A #3, the entry reads total luciferase, z-score 0.0448. Depletion of DCUN1D3 #1 gave: total luciferase, z-score 1.46. DCUN1D3 #2 showed total luciferase, z-score 2.27. Knock-down of DCUN1D3 #3 gave: total luciferase, z-score -0.36.

Targets listed so far whose target name begins with K or k:
KLHL13 #1 — total luciferase, z-score: 1.4
KLHL13 #2 — total luciferase, z-score: -0.439
KLHL13 #3 — total luciferase, z-score: -0.759

Next entries:
SP3 #1 scored total luciferase, z-score -1.03. Depletion of SP3 #2 came out at: total luciferase, z-score -0.1. With knock-down of SP3 #3, the screen gave total luciferase, z-score 1.17. SHTN1 #1 showed total luciferase, z-score 0.205. After knock-down of SHTN1 #2, the record shows total luciferase, z-score -0.106. Against SHTN1 #3 the deposit lists total luciferase, z-score 0.359.

Depletion of LARP1B #1 gave: total luciferase, z-score -0.27. LARP1B #2 scored total luciferase, z-score 0.222. Against LARP1B #3, the values are total luciferase, z-score -0.686. HAND1 #1 scored total luciferase, z-score -0.074. HAND1 #2 scored total luciferase, z-score 0.795. Knock-down of HAND1 #3 came out at: total luciferase, z-score 0.131.

For RXYLT1 #1, the values are total luciferase, z-score 0.00577. RXYLT1 #2 showed total luciferase, z-score -0.0862. RXYLT1 #3 showed total luciferase, z-score -0.397. Against PXDNL #1, the values are total luciferase, z-score -0.643. Against PXDNL #2, the entry reads total luciferase, z-score -0.215. Depletion of PXDNL #3 resulted in: total luciferase, z-score -0.766.
